Screen size: about 350,000 compounds; about 220 (0.063%) were called active. Inconclusive results, whose numbers are uncertain, are shown with a selection of clear calls. The call rests on the fitted dose curve; in most records, active means well fitted activation curve with a large enough effect; inconclusive means small, poorly fitted or top-dose-only effect; inactive means no such curve, though single readings can be large or run the other way. Where the call is inconclusive, the potency comes from a doubtful curve fit.
assay: qHTS for Activators of Integrin-Mediated Alleviation for Muscular Dystrophy; conditions: alpha7betagal myoblasts, beta-gal FDG fluorescence, 48 h; activation: at 38.3 µM (top of the series); further: nearly all actives have a fitted effect of over 60% in size;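 on activation: 100% = response of the positive control SU9516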
How it was run: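 Alpha7betagal+/- myoblasts (passage 13) were plated 16-24 hr, then exposed to compounds (1:260 dilution of DMSO stock) for 48 hours at 37C. After MPER lysis, β-galactosidase reporter activity was read as FDG fluorescence (ex 480/em 540) after 30 minutes.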
Potency means the concentration at half of the fitted maximal effect.

Q: For C=CCn1c(SCC(=O)Nc2ccccc2)nc2scc(-c3cccs3)c2c1=O, which Potency is on record?
A: inconclusive: 35.5 µM [activator, partial curve, poor fit]

Q: For S=c1[nH]nc(C2COc3ccccc3O2)o1 (centres undefined), which Potency is on record?
A: inconclusive: 5.01 µM [activator, single point]

Q: With COc1cc(OC)cc(N2C(=O)CC(N3CCC(C(=O)N4CCCCC4)CC3)C2=O)c1 (centres undefined) as the compound, how does the Potency read?
A: inconclusive: 2.82 µM [activator, single point]

Q: With Cc1c(C(=O)N2CCOCC2)oc2ccc(S(=O)(=O)N3CCCCCC3)cc12 as the compound, how does the Potency read?
A: inconclusive: 11.2 µM [activator, single point]

Q: Which Potency does the source give for COc1ccccc1N(CC(=O)N(C)Cc1ccccc1)S(=O)(=O)c1cccs1 here?
A: inconclusive: 28.2 µM [activator, single point]

Q: Which “activation” value does the source give for CCc1nnc(NS(=O)(=O)c2ccc(NC(=O)c3cccc(Cl)c3)cc2)s1 here?
A: inactive: 12.6%

Q: For COc1ccc(NC(=O)CN2CCN(CC(=O)Nc3ccccc3Cl)CC2)cc1Cl, which “activation” value is on record?
A: inactive: 3.95%

Q: Which Potency does the source give for CCc1cccc(NS(=O)(=O)c2ccc3c(c2)NC(=O)CC(=O)N3)c1 here?
A: inconclusive: 11.2 µM [activator, partial curve, poor fit]

Q: Which “activation” value does the source give for CC(=O)c1sc(N/N=C\c2ccc(Br)cc2)nc1C here?
A: inactive: -32.5%

Q: For COc1ccc(NC(=O)c2cccc(S(=O)(=O)NCc3ccco3)c2)c(OC)c1, which Potency is on record?
A: inconclusive: 3.98 µM [activator, partial curve, poor fit]

Q: Which Potency does the source give for CCCCCN(C(=O)NC(=O)Nc1ccc(C)cc1C)S(C)(=O)=O here?
A: inconclusive: 5.01 µM [activator, single point]

Q: For CC(C)NC(=O)C(=O)c1cn(C)c2ccccc12, which Potency is on record?
A: inconclusive: 1.78 µM [activator, partial curve, poor fit]

Q: For CCOCCCNC(=S)N1CCN(c2nc(-c3ccccc3)cs2)CC1, which “activation” value is on record?
A: inactive: 0%

Q: For O=C(Nc1ccc(Br)cn1)c1cccc(-c2cc3ccccc3oc2=O)c1, which “activation” value is on record?
A: inactive: -38.1%

Q: Which Potency does the source give for COc1cc2cc(C(=O)N/N=C/c3ccccc3Cl)[nH]c2cc1OC here?
A: inconclusive: 1 µM [activator, full curve, poor fit]

Q: With O=C(O)c1cccc(COc2ccc(CO)cc2Cl)c1 as the compound, how does the “activation” value read?
A: inactive: -17.5%

Q: Which Potency does the source give for CC[n+]1ccccc1/C=C/Nc1ccccc1 here?
A: inconclusive: 10 µM [activator, single point]

Q: For COc1cc2ccccc2cc1C(=O)N(CCN(C)C)c1nc2ccc(C)cc2s1, which Potency is on record?
A: inconclusive: 5.01 µM [activator, single point]

Q: With COc1cc(NS(=O)(=O)c2ccc3c(c2)oc(=O)n3C)cc(OC)c1OC as the compound, how does the “activation” value read?
A: inactive: -11.1%

Q: For COc1ccc(N(CC(=O)NCCSc2ccccc2)S(=O)(=O)c2ccccc2)cc1OC, which Potency is on record?
A: inconclusive: 2 µM [activator, single point]

Q: Which activation does the source give for O=C(CSc1ccc(-c2nc3ccccc3[nH]2)cn1)N1CCN(C(=O)c2ccco2)CC1 here?
A: inactive: 15% [at 7.66 µM]

Q: Which Potency does the source give for Cc1cc(/C=C(\C#N)C(=O)N2CCCCC2)cc(C)c1O here?
A: inconclusive: 3.16 µM [activator, single point]

Q: For CCC(C)N(C(=O)CCC(=O)Nc1cc(C)on1)C(C(=O)NC(C)(C)C)c1ccccc1Cl (centres undefined), which Potency is on record?
A: inconclusive: 10 µM [activator, single point]

Q: With COc1ccc(CCNc2nc(-c3ccc(O)cc3)cs2)cc1OC as the compound, how does the Potency read?
A: inconclusive: 1.26 µM [activator, single point]

Q: With Cc1nc(Nc2ccccc2)sc1-c1ccccc1 as the compound, how does the “activation” value read?
A: inactive: -6.54%

Q: Which Potency does the source give for O=C(CSc1nc2nn(-c3ccccc3)c(=O)c-2c2n1CCCCC2)Nc1cccc(F)c1 here?
A: inconclusive: 2.51 µM [activator, single point]

Q: With CCn1cc(Cl)c(C(=O)Nc2c(C)nn(Cc3c(F)c(F)c(F)c(F)c3F)c2C)n1 as the compound, how does the Potency read?
A: inconclusive: 10 µM [activator, partial curve]

Q: For O=C(CNC(=O)c1ccccc1)NCC1COc2ccccc2O1 (centres undefined), which Potency is on record?
A: inconclusive: 28.2 µM [activator, single point]

Q: For NS(=O)(=O)c1ccc(NC(=O)c2ccc(S(=O)(=O)N3CCOCC3)o2)cc1, which Potency is on record?
A: inconclusive: 12.6 µM [activator, single point]

Q: Which Potency does the source give for CN(C)CCCNC(=S)N1CCC(c2nc3ccccc3[nH]2)CC1 here?
A: inconclusive: 28.2 µM [activator, single point]

Q: For CCN(C[C@H]1N[C@@](Cc2ccccc2)(C(=O)OC)[C@H]2C(=O)N(Cc3ccccc3)C(=O)[C@@H]12)S(=O)(=O)c1ccc(-c2ccccc2)cc1, which “activation” value is on record?
A: inactive: -0.795%

Q: With COc1ccc(CN2C(=O)CS/C2=N/N=C/c2ccccc2)cc1 as the compound, how does the “activation” value read?
A: inactive: 42.5%

Q: Which “activation” value does the source give for COc1cc2c(cc1N)-c1ccc(N)cc1C2 here?
A: inactive: 32.9%

Q: Which Potency does the source give for O=c1c2cc(NC(=S)NCc3ccccn3)ccc2nc2n1CCCCC2 here?
A: inconclusive: 28.2 µM [activator, single point]

Q: With Cc1ccccc1C(=O)Nc1nnc(SC(C)C)s1 as the compound, how does the Potency read?
A: active: 10 µM

Q: For O=C(CCN1C(=O)/C(=C/c2cccs2)SC1=S)NC1=NCCS1, which “activation” value is on record?
A: inactive: -19.4%

Q: With COc1cccc(N=c2oc3ccc(OC)cc3cc2-c2nc3ccccc3[nH]2)c1 as the compound, how does the “activation” value read?
A: inactive: 0%

Q: Which Potency does the source give for CCc1ccc(N/C(SCc2ccccc2C)=C(/C#N)C(=O)NCc2ccco2)cc1 here?
A: inconclusive: 11.2 µM [activator, partial curve, poor fit]

Q: Which Potency does the source give for O=C1N(c2ccccc2)C(c2ccccc2)N2CCCN12 (centres undefined) here?
A: inconclusive: 5.01 µM [activator, single point]

Q: Which Potency does the source give for Cc1cc(Nc2ccc(Cl)cc2)n(-c2cccc(Cl)c2)n1 here?
A: inconclusive: 28.2 µM [activator, single point]

Q: Which “activation” value does the source give for CCOC(=O)CN(C)Cc1cn[nH]c1-c1ccc2cc(OC)ccc2c1 here?
A: inactive: 12.9%

Q: For COc1ccc(OC)c2c1cc(C(=O)N[C@@H](C)C(=O)N[C@@H](C(=O)O)c1ccccc1)n2C, which Potency is on record?
A: inconclusive: 28.2 µM [activator, single point]

Q: Which Potency does the source give for C/C(=N\S(=O)(=O)c1ccc(C)cc1)Nc1cc(C(C)C)c(O)cc1C here?
A: inconclusive: 3.55 µM [activator, single point]

Q: Which Potency does the source give for CC(=O)c1cccc(NC(=O)CCN2C(=O)C3C4CCC(C4)C3C2=O)c1 (centres undefined) here?
A: inconclusive: 1.12 µM [activator, partial curve, poor fit]

Q: With COc1ccc(-c2nn(-c3ccccc3C)cc2CNC(C)Cn2cncn2)cc1F (centres undefined) as the compound, how does the Potency read?
A: inconclusive: 2.51 µM [activator, single point]

Q: Which “activation” value does the source give for C/C(=N\NC(=O)CSCc1ccccc1Cl)c1cc(O)ccc1O here?
A: inactive: -44.3%

Q: Which Potency does the source give for CCCS(=O)(=O)NCCc1csc(-c2ccc(OC)c(OC)c2)n1 here?
A: inconclusive: 5.01 µM [activator, single point]

Q: For Cc1nc(CNC(=O)c2ccccc2OC2CCN(S(C)(=O)=O)CC2)cs1, which Potency is on record?
A: inconclusive: 2.82 µM [activator, partial curve, poor fit]

Q: Which Potency does the source give for O=C(CCCCCN1C(=O)c2ccccc2C1=O)Nc1cccc(O)c1 here?
A: inconclusive: 5.01 µM [activator, single point]

Q: With Cc1cc2oc(=O)cc(CN3CCOCC3)c2cc1O as the compound, how does the Potency read?
A: inconclusive: 28.2 µM [activator, single point]

Q: With COc1cc(C(=O)NCc2ncccc2C)ccc1OC1CCN(C(C)=O)CC1 as the compound, how does the “activation” value read?
A: inactive: -8.03%

Q: Which Potency does the source give for COc1ccc(NC(=O)CN(C)CC(=O)Nc2cccc(C(C)=O)c2)cc1 here?
A: inconclusive: 28.2 µM [activator, single point]

Q: Which Potency does the source give for Cc1cccc(C)c1-n1c(=O)n(Cc2ccccc2)c(=O)c2[nH]cnc21 here?
A: inconclusive: 14.1 µM [activator, single point]

Q: Which Potency does the source give for CCN(C(=O)COc1ncnc2sccc12)c1ccccc1 here?
A: inconclusive: 14.1 µM [activator, single point]

Q: Which Potency does the source give for O=C(CCNS(=O)(=O)c1ccccc1F)N1CCN(C(c2ccccc2)c2ccccc2)CC1 here?
A: inconclusive: 17.8 µM [activator, partial curve, poor fit]

Q: Which “activation” value does the source give for COCCNc1cnn(-c2ccccc2)c(=O)c1Cl here?
A: inactive: -14.4%

Q: For N#Cc1cnn2c(-c3ccccc3)ccnc12, which Potency is on record?
A: inconclusive: 2 µM [activator, partial curve, poor fit]

Q: Which Potency does the source give for Cc1ccc(S(=O)(=O)N2CCN(C(=O)c3ccccc3)CC2)c(C)c1NS(C)(=O)=O here?
A: inconclusive: 0.501 µM [activator, full curve, poor fit]

Q: Which Potency does the source give for CSCCC(NC(=O)c1ccco1)C(=O)NCC(c1ccco1)N1CCCCC1 (centres undefined) here?
A: inconclusive: 2.51 µM [activator, full curve, poor fit]

Q: With CN(C)c1nc(Oc2ccc(OCCOc3ccccc3)nn2)nc(N(C)C)n1 as the compound, how does the Potency read?
A: inconclusive: 5.01 µM [activator, single point]

Q: For CCOC(=O)c1cc2c(=O)n3ccccc3nc2n(Cc2ccco2)c1=NC(=O)c1ccccc1OC, which Potency is on record?
A: inconclusive: 3.55 µM [activator, single point]

Q: For Nc1nc2ccccc2n1C(=O)c1ccc(F)cc1, which “activation” value is on record?
A: inactive: 2.97%

Q: With c1ccc(-c2cc(N3CCOCC3)nc(-c3ccccc3)n2)cc1 as the compound, how does the Potency read?
A: inconclusive: 10 µM [activator, partial curve, poor fit]

Q: For COc1cc(C(=O)NCCC2=CCCCC2)ccc1OCc1c(C)noc1C, which “activation” value is on record?
A: inactive: -5.14%

Q: Which activation does the source give for C=C(C)c1cccc(C(C)(C)NC(=O)NCCCn2ccnc2)c1 here?
A: inconclusive: -17.6% [activator]

Q: Which “activation” value does the source give for COc1ccc(N=Nc2[nH]c3ccc(C)cc3c2O)cc1 here?
A: inactive: 4.09%

Q: With COc1ccc(Cn2c(=S)[nH]c3ccsc3c2=O)cc1 as the compound, how does the Potency read?
A: inconclusive: 2.51 µM [activator, partial curve, poor fit]

Q: Which “activation” value does the source give for CCCCNC(=S)NNC(=O)c1nn(C)c(C)c1Cl here?
A: inactive: 0%

Q: With Cc1cc(=O)[nH]c(N=N/C(=N/Nc2ccc(O)cc2)c2ccccc2)n1 as the compound, how does the “activation” value read?
A: inactive: -31.9%

— PubChem BioAssay AID624291 (National Center for Advancing Translational Sciences (NCATS), 2012)
